Measurements from “University of Dundee, Small-Polar-MMV Screening Library” (2021), ChEMBL document CHEMBL3988442.

Amino acid sequences for entries named in this document (tags omitted). Residues count along the entry.
UniProt Q4DA54, 1-478: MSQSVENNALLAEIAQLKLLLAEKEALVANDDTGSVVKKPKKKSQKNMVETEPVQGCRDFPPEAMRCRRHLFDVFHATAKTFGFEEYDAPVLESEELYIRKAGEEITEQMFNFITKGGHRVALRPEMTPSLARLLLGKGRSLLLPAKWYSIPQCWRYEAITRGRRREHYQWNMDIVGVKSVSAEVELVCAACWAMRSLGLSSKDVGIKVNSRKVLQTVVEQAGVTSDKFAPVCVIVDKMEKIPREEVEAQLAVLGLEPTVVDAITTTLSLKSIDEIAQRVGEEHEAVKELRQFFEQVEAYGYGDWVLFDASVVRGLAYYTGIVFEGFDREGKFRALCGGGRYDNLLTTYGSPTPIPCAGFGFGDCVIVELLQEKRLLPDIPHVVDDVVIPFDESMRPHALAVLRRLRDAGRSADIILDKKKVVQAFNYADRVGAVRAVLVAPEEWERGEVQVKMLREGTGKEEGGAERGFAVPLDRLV
UniProt P9WPC5, whole entry: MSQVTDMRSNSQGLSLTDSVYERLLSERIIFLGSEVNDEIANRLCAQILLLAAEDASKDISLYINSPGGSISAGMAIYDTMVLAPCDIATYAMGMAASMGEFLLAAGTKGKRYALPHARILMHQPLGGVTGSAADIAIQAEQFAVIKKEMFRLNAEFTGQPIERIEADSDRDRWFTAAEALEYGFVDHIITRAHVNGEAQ
UniProt P9WPC3, whole entry partner: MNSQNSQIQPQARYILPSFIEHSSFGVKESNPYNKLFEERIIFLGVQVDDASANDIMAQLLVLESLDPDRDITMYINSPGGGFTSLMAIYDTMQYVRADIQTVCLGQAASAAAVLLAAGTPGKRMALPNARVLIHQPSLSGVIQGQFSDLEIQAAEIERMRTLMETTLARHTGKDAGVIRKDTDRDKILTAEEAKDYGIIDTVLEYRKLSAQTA
UniProt Q8IDJ8, 1-583: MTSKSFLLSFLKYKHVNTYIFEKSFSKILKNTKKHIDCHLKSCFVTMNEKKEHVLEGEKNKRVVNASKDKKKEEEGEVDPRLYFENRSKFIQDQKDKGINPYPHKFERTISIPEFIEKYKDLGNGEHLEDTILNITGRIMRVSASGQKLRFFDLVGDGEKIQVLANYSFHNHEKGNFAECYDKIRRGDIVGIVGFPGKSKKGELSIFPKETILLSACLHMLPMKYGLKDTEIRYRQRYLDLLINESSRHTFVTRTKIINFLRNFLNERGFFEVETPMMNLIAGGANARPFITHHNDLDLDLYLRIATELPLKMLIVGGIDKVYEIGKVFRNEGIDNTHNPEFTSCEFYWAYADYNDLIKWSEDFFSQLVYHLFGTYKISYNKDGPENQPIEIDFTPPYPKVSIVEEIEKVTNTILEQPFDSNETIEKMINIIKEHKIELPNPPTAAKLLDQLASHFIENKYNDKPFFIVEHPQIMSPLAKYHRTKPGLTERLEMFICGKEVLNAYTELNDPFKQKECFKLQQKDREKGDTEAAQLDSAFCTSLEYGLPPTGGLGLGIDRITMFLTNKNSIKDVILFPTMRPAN

Results are given as percent effect.
The controls that fix the scale are not given in the record; negative values are as filed.
Compounds were drawn at random from those tested, without regard to their results.
Two or more numbers in one place are separate tests of the same structure; such repeats can differ widely.

Leishmania in macrophages: 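Cell assay of Leishmania donovani living inside macrophages; the read-out is not stated. Tested at 30 µM. Direction is inferred from retests: higher values go with stronger inhibition. About 69,000 compounds were tested under these conditions; 1.5% (about 1,000) showed 50% or more at least once.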
TcHisRS: 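Histidine-tRNA ligase, Trypanosoma cruzi CL Brener (UniProt Q4DA54). Enzyme assay of histidyl-tRNA synthetase; the read-out is not stated. Compounds at 30 µM. Higher reads as stronger inhibition (inferred: compounds with an IC50 in retests scored well above the rest). Of about 69,000 compounds tested this way, about 31 (0.045%) reached 50% or more in at least one test.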
ClpP1P2: 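ClpP1P2, Mycobacterium tuberculosis (UniProt P9WPC5 and UniProt P9WPC3). Protease assay of ClpP1P2, read by the AMC dye that it sets free. Compounds at 50 µM. Direction is inferred from only a few compounds that gave an IC50; most scored high, so higher reads as stronger inhibition. Most other retested compounds had strongly negative values. Of about 69,000 compounds tested this way, about 10 (0.015%) reached 50% or more in at least one test.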
Toxoplasma: 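Assay of Toxoplasma gondii numbers, read through their beta-galactosidase reporter with a colour substrate. Concentration: 10 µM. The record gives no direction; the compounds picked for IC50 retests had high values, so higher reads as fewer parasites. About 67,000 compounds were tested under these conditions; 0.38% (about 260) showed 50% or more at least once.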
PfKRS1: 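Enzyme assay of the cytosolic lysyl-tRNA synthetase in 384-well plates, read by luminescence. Target: Lysine-tRNA ligase, Plasmodium falciparum 3D7 (UniProt Q8IDJ8). Concentration: 30 µM. Higher reads as stronger inhibition, judged from the few compounds that gave an IC50. Of about 69,000 compounds tested this way, about 49 (0.071%) reached 50% or more in at least one test.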

* N#Cc1cnc2ccccc2c1N1CCN(CCC(=O)O)CC1 : TcHisRS: 11.6%; ClpP1P2: 7.292%; PfKRS1: 4.239%
* CC[C@H](C)[C@@H](CO)NC(C)Cc1ccc(Cl)cc1 (stereo not given in full) : Leishmania in macrophages: 5.331%; TcHisRS: 4%; ClpP1P2: -5.28%; Toxoplasma: 23.99%; PfKRS1: 2.896%
* Cc1nnc2n1CCN(C(=O)c1cc(C)n(-c3cccnc3)c1C)C2 : Leishmania in macrophages: 29.05%; TcHisRS: 2.89%; ClpP1P2: -1.752%; Toxoplasma: -22.29%; PfKRS1: -0.1852%
* Cc1noc(CN2CCN(CCO)CC2)n1 : Leishmania in macrophages: 9.212%; TcHisRS: 2.326%; ClpP1P2: -11.85%; Toxoplasma: -6.783%; PfKRS1: 2.481%
* CC(C)n1nc(Cn2cccn2)c2c1CN(C1CCOCC1)C2 : TcHisRS: 4.598%; ClpP1P2: 8.666%; PfKRS1: 5.749%
* O=S(=O)(c1cc(F)cc(F)c1)N1CCC(Oc2ccc(Cl)cn2)CC1 : Leishmania in macrophages: -3.271% & -37.62%; TcHisRS: -3.093%; ClpP1P2: -0.9781%; Toxoplasma: 15.7%; PfKRS1: 4.108%
* COCCN(Cc1ccccc1Cl)c1nc(CCN)nc2ccccc12 : Leishmania in macrophages: 98.78%; TcHisRS: 36%; ClpP1P2: -14.77%; Toxoplasma: 48.81%; PfKRS1: 2.529%
* CCC1CN(C(=O)c2ccc(Cl)cc2O)CCN1C(C)C (stereo not given) : Leishmania in macrophages: 23.17%; TcHisRS: -2.479%; ClpP1P2: -8.497%; Toxoplasma: -4.35%; PfKRS1: 4.182%
* CN(C)C(=O)Cc1ccccc1NCc1cccc2cccnc12 : Leishmania in macrophages: 32.86%; TcHisRS: 3.415%; ClpP1P2: -25.29%; Toxoplasma: -8.218%; PfKRS1: 5.182%
* O=C(c1c[nH]cn1)N1CCCn2c(nnc2Cn2cccc2)C1 : Leishmania in macrophages: 1.224% & -6.171%; TcHisRS: 4.301%; ClpP1P2: -5.758%; Toxoplasma: -5.305%; PfKRS1: 1.424%
* CCN(CC)C(=O)c1ccc(CNc2cncc(-n3cccn3)n2)cc1 : Leishmania in macrophages: 39.27%; TcHisRS: 5.714%; ClpP1P2: -509.1%; Toxoplasma: -29.35%; PfKRS1: 0.9959%
* CCn1ncc(Cn2cc(Cl)c(N)n2)c1C : Leishmania in macrophages: -8.997%; TcHisRS: 1.587%; ClpP1P2: -8.142%; Toxoplasma: 1.586%; PfKRS1: 0.7772%
* C=C(C)Cn1nc(C)c(CN2CCN(C3CCCCC3)C(=O)C2)c1C : Leishmania in macrophages: -36.06%; TcHisRS: 6.215%; ClpP1P2: -17.21%; Toxoplasma: 19.36%; PfKRS1: -0.4958%
* COC(=O)c1ccc(C(=O)NCc2ccco2)nc1 : Leishmania in macrophages: 10.84%; TcHisRS: 1.235%; ClpP1P2: 16.85%; Toxoplasma: 0.2352%; PfKRS1: 0.4388%
* CN(c1ncccc1CNC(=O)c1csnn1)C1CCCCC1 : Leishmania in macrophages: -10.01%; TcHisRS: 9.036%; ClpP1P2: -6.374%; Toxoplasma: 6.54%; PfKRS1: -1.882%
* Cc1ccc(N(C)CC(O)COCc2ccccc2)c(C)c1 (stereo not given) : Leishmania in macrophages: -8.949%; TcHisRS: 1.571%; ClpP1P2: 10.13%; Toxoplasma: 19.23%; PfKRS1: -6.496%
* CN(C)CC(=O)N1CCc2sc(C(=O)N3CCN(C)CC3)cc21 : Leishmania in macrophages: 0.4899%; TcHisRS: 0.5025%; ClpP1P2: 2.816%; Toxoplasma: 5.641%; PfKRS1: 1.409%
* CC(C)c1nnc(NC(=O)Cc2csc(-c3nnc[nH]3)n2)s1 : Leishmania in macrophages: 6.395%; TcHisRS: 10.3%; ClpP1P2: 2.911%; Toxoplasma: -14.67%; PfKRS1: 2.913%
* CN(C)CCOCC1CN(Cc2ccc(F)cc2)Cc2nnn(C)c21.O=C(O)C(F)(F)F.O=C(O)C(F)(F)F (stereo not given) : Leishmania in macrophages: -6.838%; Toxoplasma: 19.31%
* O=C(CN1CCCC1)Nc1c2c(cc3c1CCC3)CCC2 : TcHisRS: 6.186%; ClpP1P2: -4.384%; PfKRS1: -1.829%
* CNC(=O)C1CN(C)CCN(C(=O)CCn2nnc3ccccc32)C1 (stereo not given) : Leishmania in macrophages: 12.96%; TcHisRS: 6.818%; ClpP1P2: -17.81%; Toxoplasma: -2.251%; PfKRS1: 1.755%
* CNc1cc(C)nc(-c2cc(NC)nc3[nH]ccc23)n1 : Leishmania in macrophages: -12.65%; TcHisRS: 8%; ClpP1P2: -29.07%; Toxoplasma: 9.163%; PfKRS1: 4.906%
* O=C(O)C(F)(F)F.O=C(O)C(F)(F)F.O=C(O)C(F)(F)F.[H][C@@]12CO[C@@H](CN3CCN(C)CC3)[C@]1([H])CCN(Cc1cccc(F)c1)C2 : Leishmania in macrophages: 9.325%; Toxoplasma: 0.8547%
* CNC(=O)CCCNCc1c(C(C)C)nn(C)c1N(C)C : Leishmania in macrophages: -10.33%; TcHisRS: 0%; ClpP1P2: -2.724%; Toxoplasma: -2.323%; PfKRS1: 0.6463%
* CCN1CCN(Cc2csc(C(C)C)n2)CC1 : Leishmania in macrophages: 15.98%; TcHisRS: 5.882%; ClpP1P2: 1.36%; Toxoplasma: 1.621%; PfKRS1: 5.237%

The first 3 entries again:

* N#Cc1cnc2ccccc2c1N1CCN(CCC(=O)O)CC1 | TcHisRS: 11.6%; ClpP1P2: 7.292%; PfKRS1: 4.239%
* CC[C@H](C)[C@@H](CO)NC(C)Cc1ccc(Cl)cc1 (stereo not given in full) | Leishmania in macrophages: 5.331%; TcHisRS: 4%; ClpP1P2: -5.28%; Toxoplasma: 23.99%; PfKRS1: 2.896%
* Cc1nnc2n1CCN(C(=O)c1cc(C)n(-c3cccnc3)c1C)C2 | Leishmania in macrophages: 29.05%; TcHisRS: 2.89%; ClpP1P2: -1.752%; Toxoplasma: -22.29%; PfKRS1: -0.1852%